The list shows a part of the results.
biological target: T1, OsSMF1 (Oryza sativa, UniProt Q6ZLB0 1-436); assay: protein-binding microarray (RPBM); PBS, 2% BSA, 51.3 ng/ul salmon testes DNA, 50 uM zinc acetate, 200 nM TF, 25 C, 1 h; high values mean tight binding; conditions: protein: recombinant; tags: N-terminal polyhistidine and DsRed monomer fusion (pET32a); chain copies: 2; label: CyDye5-dUTP incorporated in the synthesized complementary strand; 3' TTTTT single-stranded linker to array surface; dsDNA, one strand shown
T1 sequence: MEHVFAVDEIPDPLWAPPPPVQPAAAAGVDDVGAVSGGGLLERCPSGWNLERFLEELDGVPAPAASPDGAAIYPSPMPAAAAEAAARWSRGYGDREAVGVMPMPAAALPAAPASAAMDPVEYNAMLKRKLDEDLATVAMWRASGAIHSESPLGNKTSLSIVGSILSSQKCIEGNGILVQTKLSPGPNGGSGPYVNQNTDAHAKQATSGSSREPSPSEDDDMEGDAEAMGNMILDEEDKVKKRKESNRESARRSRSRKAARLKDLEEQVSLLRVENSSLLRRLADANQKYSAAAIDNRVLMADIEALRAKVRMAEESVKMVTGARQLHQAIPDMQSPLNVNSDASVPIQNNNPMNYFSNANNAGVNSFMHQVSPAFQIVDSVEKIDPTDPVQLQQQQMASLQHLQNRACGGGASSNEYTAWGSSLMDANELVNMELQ
Procedure, shortened: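 Polyhistidine-tagged DsRed fusions of transcription factors, joined at the N-terminus, were expressed in E. coli BL21-CodonPlus and isolated on Ni–NTA. They were incubated at 200 nM for 1 h at 25 °C on a custom Agilent array, double-stranded and BSA-blocked, in PBS with 2% BSA, salmon testes DNA and 50 µM zinc acetate. The binding signal is per-feature fluorescence intensity (arbitrary units) read on an Axon 4000B scanner after washing.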

| Sequence | binding signal |
| --- | --- |
| GTTGAGGGTGCAAAACAAAAGGCACTGATATTATAATGTACGGAGTCACCTAGTGCAG | 38500 fluorescence intensity (a.u.) |
| GTCACCGCTACGAAGTGGCGCCCCGTGCGTCAGTTCCCCACGGAGTCACCTAGTGCAG | 3810 fluorescence intensity (a.u.) |
| AGTCTCCCAATCCCAACTGATTGTTCAGATAGGTCAGTTACGGAGTCACCTAGTGCAG | 3220 fluorescence intensity (a.u.) |
| TGCATGATACGCCATCATACACTTGTAAAGTAGTGTACACCGGAGTCACCTAGTGCAG | 3280 fluorescence intensity (a.u.) |
| CTGCGGCAGCCAACGCAGCATCCACCGTGTCCCCATCGCACGGAGTCACCTAGTGCAG | 6380 fluorescence intensity (a.u.) |
| CATGCCATTTTCAGAGATTGATTAATCTGTTGTTTATGTCCGGAGTCACCTAGTGCAG | 3440 fluorescence intensity (a.u.) |
| TGTGCTAACTGTTAGTGGTGACTGGTGACAAGTACATCACCGGAGTCACCTAGTGCAG | 3360 fluorescence intensity (a.u.) |
| TTGTCGTCTTGCGATTACGGCTCCACGTGAGCGCGTGTGCCGGAGTCACCTAGTGCAG | 6900 fluorescence intensity (a.u.) |
| AATTTGCACGTAGTGACTACGTTGATTCGTGGCCGTAGATCGGAGTCACCTAGTGCAG | 4650 fluorescence intensity (a.u.) |
| CTCGCTGCCGCCGCCGTCGCTCGCCGTCACGTCGCCGTACCGGAGTCACCTAGTGCAG | 3480 fluorescence intensity (a.u.) |
| GGCATCGACAATGACGGCGATGCGGTGCATATAGTGTTGTCGGAGTCACCTAGTGCAG | 3630 fluorescence intensity (a.u.) |
| GGAGTATCCATGCCAGCTAAGCGAGTTGTACAAGGCAAGCCGGAGTCACCTAGTGCAG | 5690 fluorescence intensity (a.u.) |
| AAGACCAGTCTTGCTCAAAATTGACAACTCATGGAAATGGCGGAGTCACCTAGTGCAG | 3150 fluorescence intensity (a.u.) |
| ACATAATCCAACCTTACCTACGTGTTCATGACTCCAACACCGGAGTCACCTAGTGCAG | 9480 fluorescence intensity (a.u.) |
| TCAAAATGATCTCTACACATCATATTCTGCTTGGTATTAGCGGAGTCACCTAGTGCAG | 3320 fluorescence intensity (a.u.) |
| CAGCCTACATACGGGGTCCACGTGGGCCCCACCATATTTACGGAGTCACCTAGTGCAG | 8140 fluorescence intensity (a.u.) |
| CCGCCGCAACGCCAAGAGCCAAACCGCCTCCTCCTTCCCACGGAGTCACCTAGTGCAG | 7590 fluorescence intensity (a.u.) |
| AAGCCATTGTGGTCATATTAGGCTATTCGTGCTTCTGATGCGGAGTCACCTAGTGCAG | 3240 fluorescence intensity (a.u.) |
| AACTGGAGTTGGCACAGGATGTGGCTCAACTAGTGGTGGCCGGAGTCACCTAGTGCAG | 3580 fluorescence intensity (a.u.) |
| TACTTTGTACACGTGGTATGCCACCTGTGATTGAAAACAACGGAGTCACCTAGTGCAG | 10000 fluorescence intensity (a.u.) |
| AACCTCGCCATCTTTCTCTGACATGTCGCTCACCGCTGTGCGGAGTCACCTAGTGCAG | 5460 fluorescence intensity (a.u.) |

| Sequence | binding signal |
| --- | --- |
| TGTTGCTGCTGAATGCTGCTGACTCCGCACCAACTCCGCGCGGAGTCACCTAGTGCAG | 12600 fluorescence intensity (a.u.) |
| GATCAGCCGCTGAGCTCATCATCGCTCGAGATCACGGCCTCGGAGTCACCTAGTGCAG | 3870 fluorescence intensity (a.u.) |
| GGGTGGCTAACCAGTAACCACGTGTTTACCATGAAACGCCCGGAGTCACCTAGTGCAG | 3160 fluorescence intensity (a.u.) |
| TGTGTTGTTGTCACACTGTTGCGTGTGTCAGATGCAGGAACGGAGTCACCTAGTGCAG | 6170 fluorescence intensity (a.u.) |
| GGAGATGATAATATAGTACGTTAAGGCACTGCCTCCCGGGCGGAGTCACCTAGTGCAG | 17900 fluorescence intensity (a.u.) |
| TTTGGAATTTGGAGCAAGCAGTTTCCGATGTTAGAAAATACGGAGTCACCTAGTGCAG | 3180 fluorescence intensity (a.u.) |
| TCGGGGCCGGGTCGCTGGTGCTCGCCGACGTGCCGCCGGGCGGAGTCACCTAGTGCAG | 3640 fluorescence intensity (a.u.) |
| CTAGAGCCTAGAGGAGTCATCTCCATTTCTTAGCTTCTCTCGGAGTCACCTAGTGCAG | 3890 fluorescence intensity (a.u.) |
| CAAGTGACTGGTAAGCTGATGTGGATCAGGGAGAATCATTCGGAGTCACCTAGTGCAG | 4930 fluorescence intensity (a.u.) |
| ACTTCTCAAGTCGTACGGTTCTTGGTCAGCAAGCCAAGATCGGAGTCACCTAGTGCAG | 3380 fluorescence intensity (a.u.) |
| ATAATTTTATATGGGTGCTAGCCACGCAATTGCGCGGGCCCGGAGTCACCTAGTGCAG | 3190 fluorescence intensity (a.u.) |
| AATTTATACTGAAACACGTTATGGAACATGGAATTTCACCCGGAGTCACCTAGTGCAG | 3370 fluorescence intensity (a.u.) |
| GTGATGGTGAGGAAGTTGATGATGCTGCGCAAGATTCGGACGGAGTCACCTAGTGCAG | 4150 fluorescence intensity (a.u.) |
| GCATGTGACATATATAGTTCTTAATCCACGTGACTTGTGACGGAGTCACCTAGTGCAG | 3280 fluorescence intensity (a.u.) |
| GGTTTATTTGGGTCAACGGAAGTGAATCATGTTTCTTTGACGGAGTCACCTAGTGCAG | 3910 fluorescence intensity (a.u.) |
| AAAAGGAGGCCCTTTCCTGACAATAGATCCAACCAAATAGCGGAGTCACCTAGTGCAG | 3210 fluorescence intensity (a.u.) |
| CTTTGAAGCCCCGGGTTTGTTGCTGATGCATGGCATTTTCCGGAGTCACCTAGTGCAG | 3490 fluorescence intensity (a.u.) |
| CACGCCTCCGATCCCGTGGAACCCGACACCGTCACGCACCCGGAGTCACCTAGTGCAG | 4490 fluorescence intensity (a.u.) |
| ACGTGACTTTTATCACTGACACGTGGATCCGACGATGTCTCGGAGTCACCTAGTGCAG | 17000 fluorescence intensity (a.u.) |
| GTTACTAGTTTTGTGCAATCTCCCAATGATGATGGCAGCTCGGAGTCACCTAGTGCAG | 3720 fluorescence intensity (a.u.) |
| TATTTAGGATGTTGGCGTGGCATCGTGAGTGTTCCACTAGCGGAGTCACCTAGTGCAG | 6360 fluorescence intensity (a.u.) |

Fetched one by one from the entries so far, three records:

| Sequence | binding signal |
| --- | --- |
| TGTGTTGTTGTCACACTGTTGCGTGTGTCAGATGCAGGAACGGAGTCACCTAGTGCAG | 6170 fluorescence intensity (a.u.) |
| GTCACCGCTACGAAGTGGCGCCCCGTGCGTCAGTTCCCCACGGAGTCACCTAGTGCAG | 3810 fluorescence intensity (a.u.) |
| AACTGGAGTTGGCACAGGATGTGGCTCAACTAGTGGTGGCCGGAGTCACCTAGTGCAG | 3580 fluorescence intensity (a.u.) |

From publication PMC7819943, “Rice protein-binding microarrays: a tool to detect cis-acting elements near promoter regions in rice”
